Measurements: PubChem BioAssay AID2685 (National Center for Advancing Translational Sciences (NCATS), 2010)
The list shows a part of the results. These are further read-outs of the screen, such as a control signal, another cell line or another target. No call is given for them. Most of these compounds were active or inconclusive in the main read-out, so they are no random draw. Words in brackets tell the shape of the fitted curve; partial curves, single points and poor fits give uncertain potencies.

Experiment: qHTS Assay for Lipid Storage Modulators in Drosophila S3 Cells;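 for cell number change: cells counted by Cell Tracker Red CMTPX staining in the red channel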
Conditions: BODIPY lipid droplet fluorescence, 18-24 h; for cell number change: measured here: cell count max response, cells fed with added oleic acid
Procedure, shortened: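 Laser-scanning cytometry quantifies lipid droplet accumulation (500–530 nm total intensity; droplet/cell object ratio) in oleic acid-fed (400 uM added) Drosophila S3 cells treated with a concentration series. 20 uM Triacsin C defined 100% inhibition.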

[1] = measured here: lipid fluorescence (Fed channel) AC50, cells fed with added oleic acid
[2] = measured here: cell number channel AC50, cells fed with added oleic acid

SMILES: CCCCCCCCCCCC(=O)NC(C(=O)OCC)C(O)c1cccc([N+](=O)[O-])c1 (stereo not given)
- cell number change: 23.9%
- AC50 [1]: 18.4 µM [falling, single point]

SMILES: CC(=O)c1cnn(-c2ccccc2)c1C
- cell number change: 28.5%
- AC50 [1]: 10.3 µM [rising, single point]

SMILES: COc1cc(OC)nc(/N=C/N(C)C)n1
- cell number change: -17.2%
- AC50 [1]: 0.00461 µM [rising, full curve, poor fit]

SMILES: COc1ccc(C(C)=O)cc1CSc1nnc(C)s1
- cell number change: 112%
- AC50 [2]: 7.31 µM [rising, partial curve]
- AC50 [1]: 4.61 µM [rising, full curve, poor fit]

SMILES: Cc1cc(C(=O)OCC(=O)Nc2cccc(S(N)(=O)=O)c2)c2ccccc2n1
- cell number change: -38.6%
- AC50 [2]: 2.91 µM [falling, full curve]
- AC50 [1]: 6.51 µM [falling, full curve]

SMILES: CCc1cc(C(=O)N2CCCC(C(=O)c3cccc(OC(C)C)c3)C2)n(C)n1 (stereo not given)
- cell number change: -47.6%
- AC50 [2]: 5.17 µM [falling, partial curve, poor fit]
- AC50 [1]: 0.259 µM [falling, partial curve, poor fit]

SMILES: CC(C)C[C@H](N)c1nnc(S(=O)(=O)Cc2ccc(F)cc2)o1
- cell number change: -76.6%
- AC50 [2]: 7.31 µM [falling, partial curve]
- AC50 [1]: 5.8 µM [falling, full curve]

SMILES: CC1CCN(c2oc(Cc3cccc4ccccc34)nc2C#N)CC1
- cell number change: 42.9%
- AC50 [2]: 5.8 µM [rising, partial curve]
- AC50 [1]: 3.26 µM [rising, partial curve]

SMILES: CCOC(=O)C1=C(C)NC(=O)NC1c1c(C)nn(-c2ccccc2)c1Cl (stereo not given)
- cell number change: -13.9%
- AC50 [1]: 5.8 µM [rising, full curve, poor fit]

SMILES: O=C(CN1C(=O)C(=O)c2ccccc21)c1ccc(Cl)cc1
- cell number change: -15.1%
- AC50 [1]: 18.4 µM [falling, partial curve, poor fit]

SMILES: COc1ccc(S(=O)(=O)N2CCN(CC(=O)N3CCc4ccccc4C3)CC2)cc1OC
- cell number change: 8.36%
- AC50 [1]: 5.17 µM [falling, full curve, poor fit]

SMILES: Cc1ccccc1-n1c(C)nnc1SCC(=O)NCC1CCCO1 (stereo not given)
- cell number change: 34.4%
- AC50 [2]: 29.1 µM [rising, single point]

SMILES: O=C1OCCC1Sc1nnc(-c2ccc(F)cc2)n1Cc1ccccc1 (stereo not given)
- cell number change: 2.95%
- AC50 [2]: 0.731 µM [falling, partial curve, poor fit]
- AC50 [1]: 16.4 µM [falling, partial curve, poor fit]

SMILES: COc1ccccc1/C=C/C=C1N=C(/C=C/c2ccc(Cl)cc2)OC/1=O
- cell number change: 7.14%
- AC50 [1]: 0.00461 µM [falling, full curve, poor fit]

SMILES: COc1ccc(-c2cc(C(=O)Nc3cnn(Cc4ccccc4C)c3)no2)cc1OC
- cell number change: -137%
- AC50 [2]: 23.1 µM [falling, partial curve]

SMILES: Cc1cc(C)n(-c2nc3ccccc3n3nnnc23)n1
- cell number change: 2.97%
- AC50 [1]: 0.58 µM [rising, single point]

SMILES: Cc1ccc(CNC(=O)Nc2ccc(C)cc2)cc1
- cell number change: 30.1%

SMILES: CN(CC(=O)Nc1ccc(F)c(F)c1F)C(=O)C1=NN(c2ccccc2)C(=O)CC1
- cell number change: 41.2%
- AC50 [2]: 13 µM [rising, single point]
- AC50 [1]: 10.3 µM [rising, partial curve]

SMILES: CCC1CCCCN1C(=O)CSc1nnc(-c2c[nH]c3ccccc23)o1 (stereo not given)
- cell number change: -26.7%
- AC50 [2]: 0.651 µM [falling, full curve, poor fit]
- AC50 [1]: 10.3 µM [falling, partial curve, poor fit]

SMILES: COc1ccccc1C1CC(=O)Nc2cc(C)c(C)cc21 (stereo not given)
- cell number change: -7.3%

SMILES: COc1ccc(C2NC(=O)NC(C)=C2C(=O)Nc2cc(C)ccc2C)cc1OC (stereo not given)
- cell number change: 6.61%
- AC50 [1]: 6.51 µM [rising, single point]

SMILES: CCOC(=O)C1=NNC(C(=O)c2ccc(Cl)cc2)C1c1ccc(OC)cc1 (stereo not given)
- cell number change: -6.83%
- AC50 [1]: 3.66 µM [rising, single point]

SMILES: N#Cc1c(-c2ccco2)cc(-c2ccc(F)cc2)nc1N
- cell number change: -2.58%
- AC50 [1]: 6.51 µM [rising, single point]

SMILES: COCCCn1c(SCC(=O)Nc2oc(C)c3c(C)n[nH]c(=O)c23)nc2sc3c(c2c1=O)CCC3
- cell number change: 3.48%
- AC50 [2]: 0.326 µM [rising, full curve, poor fit]
- AC50 [1]: 0.184 µM [rising, full curve]

SMILES: FC(F)(F)c1nnc2ccc(NCc3ccccc3)nn12
- cell number change: 48.5%
- AC50 [2]: 29.1 µM [rising, single point]

SMILES: CCOC(=O)CSc1nnc(CNC(=O)c2cccs2)n1-c1cc(OC)ccc1OC
- AC50 [1]: 0.164 µM [falling, partial curve, poor fit]

SMILES: Cc1ccc(NC2CC(=O)N(CCc3ccccc3)C2=O)cc1 (stereo not given)
- AC50 [1]: 3.66 µM [rising, partial curve]

SMILES: O=C1CN(C(=O)CCCc2c[nH]c3ccccc23)c2ccccc2N1
- cell number change: -17.9%
- AC50 [1]: 14.6 µM [rising, single point]

SMILES: COc1cccc(C2Nc3ccc4ccccc4c3C3=C2C(=O)CCC3)c1O (stereo not given)
- cell number change: -56.4%
- AC50 [2]: 5.8 µM [falling, full curve]
- AC50 [1]: 6.51 µM [falling, full curve, poor fit]

SMILES: COC(=O)c1ccc(C2NCCc3cc(OC)c(OC)cc32)cc1 (stereo not given)
- cell number change: 69%
- AC50 [2]: 16.4 µM [rising, partial curve, poor fit]
- AC50 [1]: 29.1 µM [rising, single point]

SMILES: CCSCc1nnc(SCC(=O)Nc2nc3ccccc3s2)n1C
- cell number change: -22.3%
- AC50 [1]: 7.31 µM [falling, partial curve]

SMILES: CC1=C(/C=N/Nc2ccc([N+](=O)[O-])cc2[N+](=O)[O-])C(C)(C)CCC1
- cell number change: -64.3%
- AC50 [2]: 16.4 µM [falling, single point]
- AC50 [1]: 25.9 µM [falling, single point]

SMILES: NC(=O)COC(=O)c1ccccc1OCc1ccc(Cl)cc1
- cell number change: 9.07%
- AC50 [2]: 0.651 µM [rising, full curve, poor fit]

SMILES: CS(=O)(=O)N(CC(=O)N1CCC(C(N)=O)CC1)c1cc(C(F)(F)F)ccc1Cl
- cell number change: 1.75%

SMILES: Cn1c(=O)c(C(=O)NCc2ccc(Cl)cc2)c(O)c2ccccc21
- cell number change: 14.6%

SMILES: O=C(COC(=O)CCC(=O)c1ccc(F)cc1)NCc1ccco1
- AC50 [2]: 5.8 µM [rising, single point]
- AC50 [1]: 7.31 µM [rising, partial curve]

SMILES: COC(=O)c1ccc2[nH]c3c(c2c1)CC(C)CC3 (stereo not given)
- cell number change: -46.1%
- AC50 [2]: 13 µM [falling, partial curve, poor fit]

SMILES: COCc1cc(=O)[nH]c(/N=C(\N)Nc2cccc(Cl)c2)n1
- cell number change: 52.2%
- AC50 [2]: 29.1 µM [rising, single point]
- AC50 [1]: 29.1 µM [rising, single point]

SMILES: COc1ccc(C(=O)CSc2nc3c(c(=O)n(C)c(=O)n3C)n2C)cc1
- cell number change: 7.28%
- AC50 [1]: 0.00461 µM [rising, full curve, poor fit]

SMILES: O=C(c1ccc(=O)[nH]c1)N(Cc1ccco1)C1(C(=O)NC2CCCC2)CCCCC1
- cell number change: 87.3%
- AC50 [2]: 10.3 µM [rising, partial curve]

SMILES: Cc1ccc(Nc2nc(NCCO)nc3c2cnn3C)cc1Cl
- cell number change: -46.1%
- AC50 [2]: 29.1 µM [falling, single point]
- AC50 [1]: 29.1 µM [falling, single point]

SMILES: CNC(=O)/C(=C\c1ccco1)NC(=O)c1ccco1
- cell number change: 28.7%
- AC50 [1]: 29.1 µM [rising, single point]

SMILES: COc1cc2[nH]ccc(=O)c2cc1OC
- cell number change: 30.2%
- AC50 [2]: 29.1 µM [rising, single point]

SMILES: Cc1cc(NC(=O)/C=C/c2cccc(Cl)c2)n(-c2nc3ccccc3[nH]2)n1
- cell number change: 12.8%
- AC50 [2]: 0.326 µM [rising, full curve, poor fit]

SMILES: CCN1C(=NCc2cc(OC)c(OC)c(OC)c2)N[C@@H](c2cccc(F)c2)C(C(=O)OC)=C1C
- cell number change: -2.34%
- AC50 [1]: 0.0517 µM [falling, full curve, poor fit]

SMILES: Cc1ccc(S(=O)(=O)CCC(=O)NCc2ccccc2)cc1
- cell number change: -9.48%
- AC50 [1]: 29.1 µM [falling, single point]

SMILES: O=C(OCc1ccc(Cl)c(Cl)c1)c1cnccn1
- cell number change: -74.4%
- AC50 [2]: 29.1 µM [falling, single point]

SMILES: O=C(Nc1ccc(-c2nc3ccccc3o2)cc1)c1cc(-n2cnnc2)ccc1Cl
- cell number change: -38.2%
- AC50 [2]: 20.6 µM [falling, single point]
- AC50 [1]: 20.6 µM [falling, single point]

SMILES: COc1ccc(NC(=S)NC2CCN(Cc3ccccc3)CC2)cc1OC
- cell number change: 15.9%
- AC50 [1]: 1.3 µM [falling, partial curve]

SMILES: CCN(Cc1cn2cccnc2n1)C1CCCCC1
- cell number change: -38.6%
- AC50 [2]: 32.6 µM [falling, single point]
- AC50 [1]: 32.6 µM [falling, single point]

SMILES: CN(C)S(=O)(=O)c1cccc(COC(=O)c2cc([N+](=O)[O-])ccc2N2CCOCC2)c1
- cell number change: 41.8%
- AC50 [2]: 6.51 µM [rising, partial curve]

SMILES: COc1cc(/C=N/Nc2nc3ccccc3[nH]2)cc(OC)c1O
- cell number change: -68.2%
- AC50 [2]: 29.1 µM [falling, single point]
- AC50 [1]: 29.1 µM [falling, single point]

SMILES: O=C(NCCS(=O)(=O)N1CCN(Cc2ccccc2)CC1)c1ccc(F)cc1
- cell number change: 1.64%
- AC50 [1]: 0.13 µM [falling, full curve, poor fit]

SMILES: O=C(NC(=S)NCCc1ccccc1)C1CCCCC1
- cell number change: 12.2%
- AC50 [1]: 29.1 µM [falling, partial curve]

SMILES: CN1CCSc2ccc(C(=O)Nc3cc(F)ccc3F)cc21
- cell number change: 17.8%
